The record followed here is PubChem BioAssay AID1918947 (Molecular Pharmacology Branch, DTP, NCI, 2023).

In general, viability, T/C refers to the result in the treated group divided by that in the control group, in per cent.

This assay relates to A498 complex spheroid viability. Briefly: Anticancer human tumor A498 cell line growth inhibition.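 Note: spheroids exposed to agents for seven days before readout; 100% = DMSO vehicle-treated spheroids.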 Conditions: active compounds read low. The source says:
Multicellular complex tumor spheroid response to LSD1 Inhibitor Iadademstat in combination with a variety of drugs and investigational agents in selected tumor cell lines
The current study was undertaken to assess response to LSD1 inhibitors in combination with standard-of-care drugs and investigational agents in solid tumor complex spheroid models as well as in the K-562 leukemia. Complex spheroids include a stromal component modeled by human endothelial cells (HUVEC) and fibroblasts modeled by human mesenchymal stem cells (MSCs). The concentration ranges selected for each drug and investigational agent were based upon clinically achievable concentrations if the clinical Cmax of the agent was known.
Compounds. The drugs and investigational agents used in this study are listed on Table 1. All of the agents used, including staurosporine (NSC755774) and gemcitabine (NSC613327), were obtained from the Developmental Therapeutics Program, NCI. FDA-approved anticancer drugs are available from the NCI at http://dtp.nci.nih.gov/branches/dscb/oncology_drugset_explanation.html. Drugs and investigational agents were >95% pure by proton nuclear magnetic resonance (NMR) and liquid chromatography/mass spectrometry (LC/MS). Stock solutions were prepared at 400x in DMSO, stored at -70 degrees C, and diluted in fresh medium prior to their use. The final concentration of DMSO in cell culture wells never exceeded 0.25% (v/v). The FDA-approved anticancer drug set is available from the Developmental Therapeutics Program at https://dtp.cancer.gov/organization/dscb/obtaining/available_plates.htm. All drugs and investigational agents were tested over a range starting from a high concentration at or near the clinical Cmax and decreasing in half-log increments. If the clinical Cmax for an agent had not been determined, the highest concentration tested was 10 microM.
Cell Lines. […]

Each structure is given as a SMILES string. Values joined by “and” are separate entries in the source; they are usually repeats but may differ in a detail not shown here. Identical values can stand only once. This continues a long series; more values of the same kind are listed elsewhere.

On to `NC1CC1c1ccc(-c2cccc(O)c2)cc1` (stereo not drawn), for which the viability, T/C (compound 0.1 µM) is 100% [middle of 25 runs].
`NC1CCC(NC2CC2c2ccccc2)CC1` (stereo not drawn): the viability, T/C runs as follows: (compound 0.316 µM) 94.4% [middle of 23 runs]; (compound 10 µM) 57.4% and 72.1%.
